Test results from PMC6305323.
No constants are given. Whether binding was seen depends on the method and setting. Some entries that bind do so weakly or less than the wild type.

T1: OsJAZ1 (rice (Oryza sativa cv. Dongjin)) (UniProt Q7XEZ1)
T1 sequence: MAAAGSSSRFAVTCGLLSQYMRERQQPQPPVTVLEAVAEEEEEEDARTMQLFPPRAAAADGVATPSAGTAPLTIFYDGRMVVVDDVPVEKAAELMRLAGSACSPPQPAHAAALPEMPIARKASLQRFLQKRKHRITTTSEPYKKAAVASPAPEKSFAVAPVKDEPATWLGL

T2: OsJAZ6 (rice (Oryza sativa cv. Dongjin)) (UniProt Q8H395)
T2 sequence: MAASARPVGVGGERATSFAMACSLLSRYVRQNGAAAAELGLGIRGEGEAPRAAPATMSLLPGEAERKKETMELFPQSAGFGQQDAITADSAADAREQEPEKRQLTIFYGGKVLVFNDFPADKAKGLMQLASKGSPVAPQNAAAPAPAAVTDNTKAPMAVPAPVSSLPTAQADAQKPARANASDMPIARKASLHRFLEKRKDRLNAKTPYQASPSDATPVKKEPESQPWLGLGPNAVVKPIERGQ

T3: OsJAZ12 (rice (Oryza sativa cv. Dongjin)) (UniProt Q6Z2K1)
T3 sequence: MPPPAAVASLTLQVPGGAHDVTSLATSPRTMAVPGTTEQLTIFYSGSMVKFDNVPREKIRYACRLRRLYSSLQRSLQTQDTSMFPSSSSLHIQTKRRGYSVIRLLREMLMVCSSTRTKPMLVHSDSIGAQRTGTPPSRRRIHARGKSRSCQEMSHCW

T4: OsJAZ9 (Jasmonate ZIM-domain protein 9) (rice (Oryza sativa cv. Dongjin)) (UniProt Q6ZJU3)
T4 sequence: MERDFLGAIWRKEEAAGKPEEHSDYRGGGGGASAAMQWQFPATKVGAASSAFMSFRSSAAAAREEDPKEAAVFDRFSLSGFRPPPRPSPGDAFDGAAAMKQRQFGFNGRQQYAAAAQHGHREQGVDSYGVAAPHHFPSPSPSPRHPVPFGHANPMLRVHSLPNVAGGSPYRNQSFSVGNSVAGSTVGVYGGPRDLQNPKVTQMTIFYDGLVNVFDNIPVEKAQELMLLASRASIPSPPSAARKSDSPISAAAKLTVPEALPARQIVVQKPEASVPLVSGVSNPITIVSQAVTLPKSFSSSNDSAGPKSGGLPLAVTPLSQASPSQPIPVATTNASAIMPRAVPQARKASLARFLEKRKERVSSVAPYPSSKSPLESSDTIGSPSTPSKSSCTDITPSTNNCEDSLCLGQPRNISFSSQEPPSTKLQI

T5: OsJAZ4 (rice (Oryza sativa cv. Dongjin)) (UniProt Q10QW3)
T5 sequence: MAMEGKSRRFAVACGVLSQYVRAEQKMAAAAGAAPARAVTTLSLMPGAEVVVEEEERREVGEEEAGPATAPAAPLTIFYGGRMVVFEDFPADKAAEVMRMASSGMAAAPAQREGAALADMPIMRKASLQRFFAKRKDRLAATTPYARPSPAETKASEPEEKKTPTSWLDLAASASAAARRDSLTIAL

B1: SLENDER RICE 1 (SLR1) (protein, UniProt Q7G7J6 1-625)
chain: MKREYQEAGGSSGGGSSADMGSCKDKVMAGAAGEEEDVDELLAALGYKVRSSDMADVAQKLEQLEMAMGMGGVSAPGAADDGFVSHLATDTVHYNPSDLSSWVESMLSELNAPLPPIPPAPPAARHASTSSTVTGGGGSGFFELPAAADSSSSTYALRPISLPVVATADPSAADSARDTKRMRTGGGSTSSSSSSSSSLGGGASRGSVVEAAPPATQGAAAANAPAVPVVVVDTQEAGIRLVHALLACAEAVQQENFAAAEALVKQIPTLAASQGGAMRKVAAYFGEALARRVYRFRPADSTLLDAAFADLLHAHFYESCPYLKFAHFTANQAILEAFAGCHRVHVVDFGIKQGMQWPALLQALALRPGGPPSFRLTGVGPPQPDETDALQQVGWKLAQFAHTIRVDFQYRGLVAATLADLEPFMLQPEGEADANEEPEVIAVNSVFELHRLLAQPGALEKVLGTVHAVRPRIVTVVEQEANHNSGSFLDRFTESLHYYSTMFDSLEGGSSGQAELSPPAAGGGGGTDQVMSEVYLGRQICNVVACEGAERTERHETLGQWRNRLGRAGFEPVHLGSNAYKQASTLLALFAGGDGYRVEEKEGCLTLGWHTRPLIATSAWRVAAA
B2: SLR1-LIKE (SLRL) protein SLRL2 (protein, UniProt Q6F368 1-500)
chain: MAQFGGFGGWSAMDVAAAAAAALGNVSGAVYHADPAAAVYASLVPGMAVVPGRAPPSAVQIEAARRWKELEKMALRSVNLMVTCAGAIQAGDYAAAAGSLSDAREIFAKMPTTRTGIGRVLTHFADALAERLFPAFPQSAPPPPPPRGEQRELFRGFYEAGPYLKFAHLAANQAILEAFEGCNSVHVIDFALTDGIQWPSLIQALAVRPGGPPFLRITGIGPHAAGNRDELRDVGLRLAEFARSCSVPFAFRGIAADQLDGLRPWMFQVAPGEAVAINSVLQLHRLLVDQDAAAAASFPAPIDGVLDWVASMNPRVFTVVEQEADHNKSSLLERFTNSLFYYASMFDSLEAISRHGGGDGAGNPLAEAYLQGEIADIVSREGSSRVERHEQMPRWVERLRRGGMTQLPLGATGLWQAAMQLREFSGAGFGVQENGGFLTLTWHSQRLYSASAWRATAGKKMTMMASGAADAMEESQNSNTNGGGGGSSGGGHGALNQIMQ
B3: SLR1-LIKE protein SLRL1 (protein, UniProt B7F9I5 1-495)
chain: MAMDTFPFQWPMDPAASSGLDAGFLPPPAAVAPDDGVGYYDPPAGADVDAAALPEFAAAFPPCAPDAAAAVLAMRREEEEVAGIRLVHLLMSCAGAIEAGDHALASAQLADSHAALAAVSAASGIGRVAVHFTTALSRRLFPSPVAPPTTDAEHAFLYHHFYEACPYLKFAHFTANQAILEAFHGCDHVHVIDFSLMQGLQWPALIQALALRPGGPPFLRITGIGPPSPTGRDELRDVGLRLADLARSVRVRFSFRGVAANSLDEVRPWMLQIAPGEAVAFNSVLQLHRLLGDPADQAPIDAVLDCVASVRPKIFTVIEQEADHNKTGFLDRFTEALFYYSAVFDSLDAASASGGAGNAMAEAYLQREICDIVCGEGAARRERHEPLSRWRDRLTRAGLSAVPLGSNALRQARMLVGLFSGEGHSVEEADGCLTLGWHGRPLFSASAWEAAGDGGGDNNNNSNSNVSGSSGSDSNNSGSSNGKSSGARDGSSVCL

Assays:
Test in all cases: two-hybrid; Matchmaker Gold (Clontech), Y2H Gold yeast; JAZs as bait in pGBKT7, DELLAs as prey in pGADT7; growth on DDO (-Leu/-Trp) media with 250 ng/mL Aureobasidin A, 5 days in the dark at 30°C
[1] = molecular target: T1, OsJAZ1 (rice (Oryza sativa cv. Dongjin))
[2] = molecular target: T2, OsJAZ6 (rice (Oryza sativa cv. Dongjin))
[3] = molecular target: T3, OsJAZ12 (rice (Oryza sativa cv. Dongjin))
[4] = molecular target: T4, OsJAZ9 (Jasmonate ZIM-domain protein 9) (rice (Oryza sativa cv. Dongjin))
[5] = molecular target: T5, OsJAZ4 (rice (Oryza sativa cv. Dongjin))

Binder	binding [1]	binding [2]	binding [3]	binding [4]	binding [5]
B1	no binding	no binding	no binding	binds	no binding
B2	no binding	no binding	no binding	binds	no binding
B3	no binding	no binding	no binding	no binding	no binding
